Data from article PMC12341765 (Nature materials, 2021).

Experiment: peptide made by a vendor
Conditions: whole synthesis, RP-HPLC

With 5F AM-GGGSGRSANAKGK(CPQ2)-PEG2-GC the “final HPLC purity” value was 94.2%.

In the case of 5F AM-GGLVPRGSGK(CPQ2)-PEG2-C, the “final HPLC purity” value is reported as 91.2%.

In the case of 5F AM-GGPLGLRSWK(CPQ2)-PEG2-C, the “final HPLC purity” value is reported as 91.8%.

With 5F AM-GGPLGVRGKK(CPQ2)-PEG2-C the “final HPLC purity” value was 95.7%.

With 5F AM-GGPQGIWGQK(CPQ2)-PEG2-C the “final HPLC purity” value was 90.3%.

In the case of 5F AM-GGPVGLIGK(CPQ2)-PE G 2-C, the “final HPLC purity” value is reported as 91.6%.

In the case of 5F AM-GGPVPLSLVMGK(CPQ2)-PEG2-GC, the “final HPLC purity” value is reported as 90.9%.

With 5F AM-GGPVPLSLVMK(CPQ2)-PEG2-C the “final HPLC purity” value was 92.6%.

With 5F AM-GGPWGIWGQGK(CPQ2)-PEG2-C the “final HPLC purity” value was 91.8%.

For 5F AM-GGf-Pip-RSGGG K(CPQ 2)-PEG2-C, the “final HPLC purity” value was 93.5%.

For 5F AM-GILSRIVGGGK(CPQ2)-PEG2-GC, the “final HPLC purity” value was 90.7%.

With 5F AM-GSGSKIIGGGK(CPQ2)-PEG2-GC the “final HPLC purity” value was 92.0%.

With AC(Cy7)DDQNPWRAYLDLLFPTDTLLLDLLWkk the “final HPLC purity” value was 93.7%.

In the case of AC(Cy7)DDQNPWRAYLKLLFPTKTLLLKLLWkk, the “final HPLC purity” value is reported as 90.1%.

In the case of ACDDQNPWRAYLDLLFPTDTLLLDLLWkk, the “final HPLC purity” value is reported as 91.2%.

For ACDDQNPWRAYLKLLFPTKTLLLKLLWkk, the “final HPLC purity” value was 92.2%.

For “K(N3)GGAC(Cy7)DDQNPWRAYLDLLFPTDTLLLDLLWkk”, the “final HPLC purity” value was 91.0%.

For “K(N3)GGAC(Cy7)DDQNPWRAYLKLLFPTKTLLLKLLWkk”, the “final HPLC purity” value was 93.4%.

With K(N3)GGACDDQNPWRAYLDLLFPTDTLLLDLLWkk the “final HPLC purity” value was 91.8%.

For K(N3)GGACDDQNPWRAYLKLLFPTKTLLLKLLWkk, the “final HPLC purity” value was 97.7%.

Where a sequence shows no end group, the ends are not given.
